Assay results from PubChem BioAssay AID493014 (National Center for Advancing Translational Sciences (NCATS), 2011).
The list shows a part of the results. These are further read-outs of the screen, such as a control signal, another cell line or another target. No call is given for them. Most of these compounds were active or inconclusive in the main read-out, so they are no random draw. Words in brackets tell the shape of the fitted curve; partial curves, single points and poor fits give uncertain potencies.

Test: qHTS Assay to Find Inhibitors of Chronic Active B-Cell Receptor Signaling
Conditions: ABC-DLBCL IkBa-CBG/CBR reporter, luminescence ratio (green luciferase fused to IkBa over red control in TMD8 lymphoma cells), 4 h
In short: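 TMD8 ABC-DLBCL cells carrying doxycycline-inducible green luciferase fused to IkappaBalpha plus unfused red luciferase were exposed to compounds (up to 46 uM) for 4 hrs at 37C. Activity came from the overlap-corrected green/red luminescence ratio.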

[1] = measured here: CBR red luminescence, cell number

| SMILES | AC50 [1] | AC50 (measured here: IkBa-CBG green luminescence) |
| --- | --- | --- |
| O=C(Cc1cccs1)N=Nc1c(O)[nH]c2ccccc12 | 12.6 µM [falling, partial curve, poor fit] | – |
| CCOc1cccc(CC(=O)NCc2ccc3c(c2)CCN3C(C)=O)c1OCC | 0.398 µM [rising, full curve, poor fit] | – |
| CN(CCC#N)C(=O)COC(=O)c1ccccc1C(=O)c1ccc(Cl)c([N+](=O)[O-])c1 | 5.01 µM [falling, full curve] | – |
| CS(=O)(=O)c1ccc2nc(NC(=O)CCN3C(=O)c4ccccc4C3=O)sc2c1 | 22.4 µM [rising, partial curve, poor fit] | – |
| O=C1CS/C(=N/N=C2CCCC2)N1 | 0.501 µM [rising, full curve, poor fit] | – |
| Fc1ccc(Cn2nnc3ccccc32)cc1 | 5.62 µM [falling, single point] | – |
| CCCN1CCC(=NNc2ccc(C(=O)O)cc2)CC1 | 0.316 µM [falling, full curve] | – |
| COc1cccc(OC(=O)CSc2nnc(-c3ccccc3Br)o2)c1 | 29.1 µM [falling, single point] | – |
| CC1=C(C(=O)Nc2ccccc2)C(c2ccco2)C(C#N)=C(SCC(=O)Nc2cccc(C)c2C)N1 (configuration not stated) | 4.11 µM [falling, full curve, poor fit] | – |
| O=C(NCc1cc([N+](=O)[O-])ccc1O)c1cccnc1Sc1ccc(Cl)cc1 | 0.316 µM [rising, full curve, poor fit] | – |
| O=C(NCCS(=O)(=O)NCCc1ccccc1)c1ccc2c(c1)OCO2 | 32.6 µM [falling, single point] | – |
| COc1ccccc1CCn1c(N)c(C#N)c2nc3ccccc3nc21 | 10.3 µM [falling, partial curve] | – |
| CC1(C)CC(=O)C(C=Nc2ccc3[nH]ncc3c2)=C(O)C1 | 8.2 µM [falling, partial curve] | 23.1 µM [falling, partial curve, poor fit] |
| O=C(NCCCn1ccnc1)c1cccc(S(=O)(=O)Nc2ccccc2F)c1 | 3.55 µM [rising, single point] | – |
| C=CCOC(=O)C(C#N)c1nc2ccccc2nc1N1CCN(Cc2ccc3c(c2)OCO3)CC1 (configuration not stated) | 11.6 µM [rising, partial curve, poor fit] | – |
| CCc1ccc(Sc2cc(C(=O)O)c3ccccc3n2)cc1 | 1.58 µM [rising, partial curve, poor fit] | – |
| CNC(C)C#Cc1c(-c2cc(OC)c(OC)c(OC)c2)noc1C (configuration not stated) | 7.94 µM [falling, partial curve, poor fit] | – |
| Cc1ccsc1C(=O)NNC(=O)C1CC=CCC1C(=O)O (configuration not stated) | 5.8 µM [falling, partial curve] | – |
| CCN1CCC2(CC1)Oc1c(OC)cccc1C1CC(c3cccnc3)=NN12 (configuration not stated) | 15.8 µM [rising, single point] | – |
| Cc1occc1C(=O)NNC(=O)COc1ccc(Br)cc1Br | 18.4 µM [rising, partial curve] | – |
| COc1cc(C(=O)NCCCCCCNC(=O)c2cc(OC)c(OC)c(OC)c2)cc(OC)c1OC | 0.562 µM [rising, full curve, poor fit] | – |

| SMILES | AC50 [1] | AC50 (measured here: IkBa-CBG green luminescence) |
| --- | --- | --- |
| CCCCc1c(O)nc2sc3cc(OC)ccc3n2c1=O | 0.517 µM [falling, full curve, poor fit] | – |
| CCc1nnc(NC(=O)COc2ccc([N+](=O)[O-])cc2)s1 | 12.6 µM [rising, partial curve] | – |
| O=[N+]([O-])c1ccc(-c2nc(Nc3cccc(O)c3)c3ccccc3n2)cc1 | 10 µM [falling, partial curve, poor fit] | – |
| Cc1ccc(C2=Nc3c(ccc4ccccc34)C(c3ccncc3)=NN2)cc1 | 35.5 µM [falling, single point] | – |
| CCC(=O)Nc1cccc(-c2nc3ccccc3c(=O)o2)c1 | 10 µM [falling, partial curve] | – |
| O=C(Nc1ccccc1)C1=C[C@@H](c2csc3ccccc23)C[C@@H](OCc2ccc(CO)cc2)O1 | 15.8 µM [falling, single point] | – |
| COC(=O)c1cc(NC(=O)COC(=O)C2CCC2)cc(C(=O)OC)c1 | 3.66 µM [falling, partial curve] | – |
| COc1ccc(CCNC(=S)NC(=O)c2ccccc2)cc1OC | 35.5 µM [falling, single point] | – |
| CCOC(=O)c1cnc(-c2ccccc2O)nc1Cl | 2.51 µM [falling, full curve, poor fit] | – |
| CCc1ccc2c(c1)/C(=C/C(=O)c1cccs1)C(=O)N2 | 25.1 µM [falling, partial curve, poor fit] | – |
| O=C(NNC(=O)C1CC=CCC1)c1ccccc1Cl (configuration not stated) | 15.8 µM [falling, single point] | – |
| Cc1onc(-c2c(F)cccc2Cl)c1C(=O)ONC(=O)c1ccco1 | 2.24 µM [rising, full curve] | – |
| Cc1ccc(NC(=S)N/N=C/c2ccc(Cl)c([N+](=O)[O-])c2)cc1 | 20.6 µM [falling, partial curve, poor fit] | – |
| Cn1ncc(Cl)c1C(=O)NCc1ccco1 | 20 µM [falling, single point] | – |
| O=C(CCCc1nc2ccccc2s1)Nc1ccccc1 | 10 µM [rising, partial curve, poor fit] | – |
| CSc1ccccc1NC(=O)CN(c1cc(C)cc(C)c1)S(C)(=O)=O | 9.2 µM [falling, partial curve, poor fit] | – |
| C/C(=N\NC(=O)c1ccn(C)n1)c1ccc(NC(=O)C2CCCC2)cc1 | 18.4 µM [falling, partial curve] | – |
| Cc1csc(SCC(=O)Nc2cccc3nsnc23)n1 | 13 µM [falling, partial curve] | – |
| Cc1nnsc1C(=O)N(Cc1ccccc1)C(C)C | 15.8 µM [rising, partial curve, poor fit] | – |
| O=C(CN(c1ccccc1)S(=O)(=O)c1ccccc1[N+](=O)[O-])Nc1cccnc1 | 3.16 µM [falling, partial curve, poor fit] | – |

Copied from the list.
Value of CCc1nnc(NC(=O)COc2ccc([N+](=O)[O-])cc2)s1 under AC50 [1]: 12.6 µM [rising, partial curve]
Value of O=C(NNC(=O)C1CC=CCC1)c1ccccc1Cl (configuration not stated) under AC50 [1]: 15.8 µM [falling, single point]
